# Results taken from publication PMC6925144, “A prospective compound screening contest identified broader inhibitors for Sirtuin 1” (Scientific Reports, 2019).
# By UniProt entry, the sequences of proteins in these tests, tags left out. Residues count along the entry.
# UniProt Q96EB6, 2-747 limits assumed: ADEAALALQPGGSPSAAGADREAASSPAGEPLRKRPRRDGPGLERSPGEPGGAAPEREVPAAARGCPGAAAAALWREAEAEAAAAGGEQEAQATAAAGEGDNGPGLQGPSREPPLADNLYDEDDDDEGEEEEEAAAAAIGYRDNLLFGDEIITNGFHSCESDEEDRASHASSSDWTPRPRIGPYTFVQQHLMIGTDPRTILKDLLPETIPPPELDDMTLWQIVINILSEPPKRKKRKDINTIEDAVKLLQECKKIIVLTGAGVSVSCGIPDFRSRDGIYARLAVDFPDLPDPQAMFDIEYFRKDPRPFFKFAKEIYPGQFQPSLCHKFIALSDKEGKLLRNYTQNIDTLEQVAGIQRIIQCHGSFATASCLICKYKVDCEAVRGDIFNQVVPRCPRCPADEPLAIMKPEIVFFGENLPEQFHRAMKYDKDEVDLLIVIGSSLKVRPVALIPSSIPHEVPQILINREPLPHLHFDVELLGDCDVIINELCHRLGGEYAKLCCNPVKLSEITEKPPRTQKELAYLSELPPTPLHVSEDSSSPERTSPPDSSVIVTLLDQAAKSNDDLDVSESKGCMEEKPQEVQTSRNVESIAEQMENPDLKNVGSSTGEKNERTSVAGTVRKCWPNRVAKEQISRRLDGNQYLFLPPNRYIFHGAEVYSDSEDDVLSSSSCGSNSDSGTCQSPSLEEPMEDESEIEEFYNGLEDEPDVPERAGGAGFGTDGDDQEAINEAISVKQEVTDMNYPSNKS
# Over roughly 3,200 compounds, “TSA(without NAD+) / Primary screening (TSA) / delta Tm (K)” has its median near -0.07; the highest 2% begin near 0.37. This is one part of the list.
# Molecular target: NAD-dependent deacetylase Sirtuin 1 (human, UniProt Q96EB6)
# Test: primary screen, delta tm
# Set-up: single well (n = 1)
# Conditions: 10 µM
# Outline: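 Thermal shift of Sirtuin 1 measured without NAD+, compound at 10 µM (n = 1); value is ΔTm, with hits defined as ΔTm > 0.45 K or < −1.5 K. Hits retested at 5, 10, 20 µM (n = 4) and counterscreened on bovine carbonic anhydrase and ABL1 SH2 domain.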
row,Structure (SMILES),TSA(without NAD+) / Primary screening (TSA) / delta Tm (K)
1,COc1ccc2nc(C)cc(N3CCN(S(=O)(=O)/C=C/c4ccccc4)CC3)c2c1,-0.07 K
2,Cc1ccc(C(=O)CSc2nc3ccsc3c(=O)n2C)s1,-0.18 K
3,CC(C#N)(NC(=O)COC(=O)c1cc(-c2ccc(O)cc2)nc2ccccc12)C1CC1 (centres unmarked),0.17 K
4,Cc1nc(CSc2nncs2)oc1-c1ccc(Cl)cc1,-0.22 K
5,COc1ccc(C(=O)OC(C)C(=O)Nc2ccc(C(N)=O)cc2)c(OC)c1 (centres unmarked),0.15 K
6,Cc1ccc(C(=O)CCC(=O)Nc2cc(C(N)=O)ccc2N2CCCC2)cc1,-0.14 K
7,Cn1ncc2c(=O)[nH]c(N3CCC(c4cc5ccccc5[nH]4)CC3)nc21,-0.23 K
8,NCCCCS(=O)(=O)O,-0.23 K
9,CN(Cc1ccc(Cl)s1)c1cc(=O)n2ccccc2n1,-0.12 K
10,Cc1c(CCC#N)c(Cl)n2c(nc3ccccc32)c1C#N,-0.04 K
11,COc1ccc(OCCC(=O)Nc2c(C(N)=O)n[nH]c2C)cc1,0.02 K
12,O=C(CCc1nc2ccccc2s1)Nc1cccc(S(=O)(=O)NCc2ccco2)c1,0.08 K
13,COc1cccc(CC(=O)N2CCC(O)(C(F)(F)F)C2)c1 (centres unmarked),-0.05 K
14,COc1cc(CN(C)C(=O)c2ccc3c(c2)C(=O)N(C)C3=O)ccc1OCc1ccccc1,-0.05 K
15,COc1ccccc1C(=O)NC(CCSC)C(=O)Nc1ccc(C23CC4CC(CC(C4)C2)C3)cc1 (centres unmarked),-0.08 K
16,CCNc1ncnc2c1cnn2-c1ccccc1,-0.18 K
17,O=C(CSc1nnc(-c2cccnc2)o1)N(Cc1ccccc1)c1nc2c(s1)CCCC2,0.08 K
18,COc1ccc(C2C(C(=O)c3ccc(C)cc3)=C(O)C(=O)N2CCCN2CCOCC2)cc1OC (centres unmarked),-0.02 K
19,O=c1cc(NCC2(c3ccccc3)CCC2)nc2ccccn12,0.02 K
20,O=C(O)Cn1c(S)nc2ccccc2c1=O,-0.18 K
21,NC(=O)c1cccc(NC(=O)c2cc3c(s2)-c2ccccc2CC3)c1,1.03 K
22,N#Cc1cc(Br)ccc1NCC1(CCO)CCOC1 (centres unmarked),-0.24 K
23,COc1ccc(C2C(C(=O)/C=C/c3ccco3)=C(O)C(=O)N2CCCN2CCOCC2)cc1OC (centres unmarked),0.06 K
24,Cc1csc(=O)n1CCC(=O)N1CCC(CC(N)=O)CC1,-0.11 K

# Reprinted at random: 2 records from the list
row,Structure (SMILES),TSA(without NAD+) / Primary screening (TSA) / delta Tm (K)
6,Cc1ccc(C(=O)CCC(=O)Nc2cc(C(N)=O)ccc2N2CCCC2)cc1,-0.14 K
8,NCCCCS(=O)(=O)O,-0.23 K

# The list continues.

row,Structure (SMILES),TSA(without NAD+) / Primary screening (TSA) / delta Tm (K)
1,COC(=O)c1ccc2c(=O)n(CCc3ccccc3)c(SCC(=O)N(C3CCCCC3)C3CCS(=O)(=O)C3)nc2c1 (centres unmarked),0.09 K
2,COC[C@H](C)N,0.05 K
3,O=C(CCc1c[nH]c2ccccc12)NNC(=O)CCN1CCN(c2ccccc2)CC1,-0.01 K
4,O=C(/C=C/c1ccco1)C1=C(O)C(=O)N(CCCN2CCOCC2)C1c1ccco1 (centres unmarked),-0.02 K
5,Cc1ccc(CNC(=O)C2CSCN2)c(O)c1 (centres unmarked),-0.18 K
6,NC(=O)C1CCN(C(=O)c2cc3cc(Br)ccc3[nH]2)C1 (centres unmarked),0.12 K
7,CC(OC(=O)c1cccc(S(=O)(=O)NCc2ccco2)c1)C(=O)c1ccc2c(c1)CCC2 (centres unmarked),-0.05 K
8,O=C(Cc1c[nH]c2ccccc12)NCC1CCCN(Cc2cccs2)C1 (centres unmarked),-0.03 K
9,CC1CCCC(C)N1NC(=O)CCCN1C(=O)c2ccccc2C1=O (centres unmarked),-0.24 K
10,Cc1cc(CCNc2ccc3nnnn3n2)c(C)n1-c1ccccc1,0.09 K
11,CC1CC(C)n2nccc2N1C(=O)Cc1csc(-c2ccc(C(F)(F)F)cc2)n1 (centres unmarked),0.03 K
12,O=C(O)CN1CCN(Cc2ccccc2)C2(CCCCC2)C1,0.03 K
13,CN1CCN(c2ncnc3ccsc23)CC1,-0.03 K
14,NC(=O)C1CCN(C(=O)c2c[nH]c3cc(Br)c(Br)cc23)CC1,-0.01 K
15,COS(=O)(=O)OC,-0.01 K
16,COc1ccc(SC(C)C(N)=O)cc1 (centres unmarked),-0.12 K
17,COc1cc(CN(C)C(=O)c2ccc(-c3ccc(C(C)=O)cc3)o2)ccc1OCc1ccccc1,-0.02 K
18,N#CCn1c(COC(=O)CO/N=C2\c3ccccc3C3C=CC=CC23)nc2ccccc2c1=O (centres unmarked),-0.21 K
19,O=C(OCC(=O)C12CC3CC(CC(C3)C1)C2)[C@H](Cc1ccccc1)N1C(=O)c2ccccc2C1=O,-0.15 K
20,O=C(Nc1ccc(Cl)cn1)C1CCN(c2nc(C3CC3)nc3sc4c(c23)CCCC4)CC1,-0.04 K
21,COc1ccc(OC)c(CN(CC(=O)Nc2ccc(C(N)=O)cc2)C2CC2)c1,0.07 K
22,Cc1ccc(N(CC(=O)NC23CC4CC(CC(C4)C2)C3)S(=O)(=O)c2ccc3c(c2)OCCO3)cc1,-0.08 K
23,Cc1ccccc1NC(=O)COC(=O)c1ccccc1SCC(=O)NC12CC3CC(CC(C3)C1)C2,-0.14 K
24,Cc1cc(/C=N/NC(C)(C)C)c(C)n1-c1cc(S(=O)(=O)N2CCOCC2)ccc1N1CCCC1,0.17 K

# 3 structures from above, ordered by length of the SMILES, rising.
row,Structure (SMILES),TSA(without NAD+) / Primary screening (TSA) / delta Tm (K)
2,COC[C@H](C)N,0.05 K
20,O=C(Nc1ccc(Cl)cn1)C1CCN(c2nc(C3CC3)nc3sc4c(c23)CCCC4)CC1,-0.04 K
22,Cc1ccc(N(CC(=O)NC23CC4CC(CC(C4)C2)C3)S(=O)(=O)c2ccc3c(c2)OCCO3)cc1,-0.08 K

# Next records:

row,Structure (SMILES),TSA(without NAD+) / Primary screening (TSA) / delta Tm (K)
1,O=C(c1ccc(O)cc1)C1CCN(c2ncnc3c2oc2ccccc23)CC1,0.22 K
2,CC(=O)N1CCCc2cc(S(=O)(=O)Nc3cccc4c3CCCC4)ccc21,-0.02 K
3,CCCCOC(=O)c1ccc(NC(=O)COC(=O)CNC(=O)C23CC4CC(CC(C4)C2)C3)cc1,0.48 K
4,Cc1ccc(-c2nnc(S)n2CCC(=O)N2CCN(Cc3nc(-c4cccs4)no3)CC2)cc1,0.07 K
5,O=C(Nc1cccc(S(=O)(=O)NCc2ccco2)c1)c1cn(-c2ccccc2)nc1-c1ccccc1,0.27 K
6,CC(N)CF (centres unmarked),-0.13 K
7,CCOC(=O)Nc1cccc(C(=O)NCc2ccc3c(c2)OCO3)c1,0.03 K
8,O=C(N1CCc2ccccc2CC1)N1CC2CCCN2Cc2ccccc21 (centres unmarked),-0.03 K
9,Cc1ccc(N(C)S(=O)(=O)c2cccc(C(=O)Nc3ccc(C(N)=O)cc3)c2)cc1,0.46 K
10,C/C(=N/Nc1cc(C(=O)O)ccc1Cl)c1ccc2ccccc2c1,-0.01 K
11,NCCOCCCO,-0.04 K
12,CC1CCc2c(sc3ncnc(N4CCN(S(=O)(=O)c5ccc6c(c5)OCCO6)CC4)c23)C1 (centres unmarked),0.03 K
13,O=C(CN1CCN(Cc2ccc(Br)s2)CC1)Nc1cc(Cl)ccc1-n1cncn1,0.12 K
14,COc1ccc2c(c1)CCCC2CNC(=O)c1cc(C(N)=O)cs1 (centres unmarked),-0.07 K
15,CN(Cc1ccc(C(=O)NCC(F)(F)F)cc1)Cc1nc2c(cnn2-c2ccccc2)c(=O)[nH]1,-0.02 K
16,COCCOCCN,-0.03 K
17,O=C(O)CCc1c(-c2ccc(F)cc2)[nH]c2ccccc12,-0.22 K
18,O=C1NC(=S)NC(=O)C1=Cc1cccnc1,-0.11 K
19,O=C(CNCc1ccco1)Nc1ccccc1C(F)(F)F,-0.12 K
20,Cc1ccc(N(C)S(=O)(=O)c2cccc(C(=O)Nc3cc(F)ccc3C)c2)cc1,-0.05 K
21,O=C(NC12CC3CC(CC(C3)C1)C2)c1ccccc1C(=O)OCC(=O)N1CCc2ccccc21,-0.03 K
22,NC(=O)C1CCN(Cc2nc3c(Br)cc(Br)cc3c(=O)[nH]2)CC1,-0.07 K
23,O=C(O)CSCC(=O)O,-0.22 K
24,Nc1cccc(N2C(=O)c3ccccc3C2=O)c1,-0.13 K

row,Structure (SMILES),TSA(without NAD+) / Primary screening (TSA) / delta Tm (K)
1,O=C1NC(=S)N/C1=C\c1cc(Br)ccc1O,-0.23 K
2,NC(=O)c1cc2sc3ccccc3c2s1,-0.23 K
3,Cn1c(SCc2cccc(C#N)c2)nc2ccsc2c1=O,-0.24 K
4,COC(=O)NCC(=O)NCc1ccc(Cn2cnc3ccccc32)cc1,-0.14 K
5,O=C(O)Cc1cc(F)cc2c1OCOC2,-0.04 K
6,NCCCC(N)C(=O)O (centres unmarked),-0.02 K
7,COC(=O)c1ncccc1N1CCC(C(O)c2ccccc2)CC1 (centres unmarked),-0.08 K
8,O=C(Nc1ccc(OC(F)F)c(Cc2ccccc2)c1)C1=COCCO1,-0.12 K
9,NCC(N)C1CCC1 (centres unmarked),-0.31 K
10,CC(C)C(OC(=O)Cc1coc2cc(O)ccc12)C(=O)NC(N)=O (centres unmarked),-0.08 K
11,COCCNc1nnc(SCc2cnc(-c3ccccc3)s2)s1,-0.01 K
12,Cn1ncc2c(N3CCN(Cc4ccc5c(c4)CCO5)CC3)ncnc21,-0.13 K
13,CC1CC(C(=O)Nc2ncc(C(N)=O)s2)CCO1 (centres unmarked),0.03 K
14,CCC(C)(N)CN (centres unmarked),-0.04 K
15,CCOc1ccc(/C=C(/C#N)C(=O)c2c[nH]c3cc(F)ccc23)cc1,0.06 K
16,O=[N+]([O-])c1cnn(-c2ncnc3c2cnn3-c2ccccc2)c1,-0.02 K
17,CN(CCCNC(=O)c1ccc2ccccc2c1)Cc1ccccc1,-0.27 K
18,O=C(COC(=O)CON=C1c2ccccc2-c2ccccc21)Nc1ccc2c(c1)OCO2,0.17 K
19,CC1CC(=O)Nc2ccccc2N1C(=O)c1ccc2ccccc2c1 (centres unmarked),-0.01 K
20,O=c1cc(N2CCC(C(O)c3ccccc3)CC2)nc2ccccn12 (centres unmarked),-0.15 K
21,O=C(CN1C(=O)NC2(CCc3ccccc32)C1=O)NC(c1ccccc1)c1ccc(Cl)cc1 (centres unmarked),-0.03 K
22,Oc1ccc(/C=N/c2cccc3cnccc23)c(O)c1O,-0.31 K
23,Cc1cc(C#N)ccc1S(=O)(=O)N1CCC(N)C1 (centres unmarked),0.02 K
